This test is described as follows: qHTS Assay for Lipid Storage Modulators in Drosophila S3 Cells.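 As to cell number change: cells counted by Cell Tracker Red CMTPX staining in the red channel.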 To be noted: BODIPY lipid droplet fluorescence, 18-24 h; for cell number change: measured here: cell count max response, cells fed with added oleic acid. The gist of the method: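 Laser-scanning cytometry quantifies lipid droplet accumulation (500–530 nm total intensity; droplet/cell object ratio) in oleic acid-fed (400 uM added) Drosophila S3 cells treated with a concentration series. 20 uM Triacsin C defined 100% inhibition.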
(qHTS replaces the single test concentration by a dilution series.)

[1] abbreviates: measured here: cell number channel AC50, cells fed with added oleic acid.
[2] abbreviates: measured here: lipid fluorescence (Fed channel) AC50, cells fed with added oleic acid.

For 62 compounds, cell number change and AC50 results are on record in PubChem BioAssay AID2685 (National Center for Advancing Translational Sciences (NCATS), 2010).

SMILES strings stand for the structures. The list shows a part of the results. Further columns of the screen follow, without active or inactive calls. Compounds called inactive in the main read-out are mostly missing here. Words in brackets tell the shape of the fitted curve; partial curves, single points and poor fits give uncertain potencies.

For `CN(CC(=O)Nc1cc(S(=O)(=O)N2CCCC2)ccc1Cl)Cc1ccc2c(c1)OCO2`, the cell number change was -13.2%. For the compound `CCCCNC(=O)c1sc(=S)n2c1[nH]c(=O)c1ccc(C(=O)NCCc3ccc(OC)c(OC)c3)cc12`, the cell number change is -29.8%. In addition, the AC50 (as a rule, the concentration at which the activity in the assay is half-maximal) under setting [1] was 4.11 µM [falling, full curve, poor fit]. With `CN(CC(=O)O)Cc1nc2ccccc2[nH]1`, the cell number change was -16.4%. Regarding `CNCC(O)c1ccc(O)c(O)c1` (stereo not drawn), the cell number change worked out at 21.8%. Under setting [2], the AC50 was 32.6 µM [rising, single point]. Take `CCCCNC(=O)CNC(=S)N(Cc1ccccc1F)C1CCCCC1`: the cell number change is -31.9%. For the same compound, the AC50 under setting [1] is 20.6 µM [falling, single point]. Also, under setting [2], the AC50 is 23.1 µM [falling, single point]. Turning to `COc1ccc(S(=O)(=O)N2CCOCC2)cc1NC(=O)c1cccs1`, the cell number change amounted to 14.3%. In addition, the AC50 under setting [2] is 14.6 µM [rising, partial curve]. Regarding `CCOc1ccc(OCC(=O)N2CCC3(CC2)CC(=O)c2ccccc2O3)cc1`, the cell number change was -13.5%. Under setting [1], the AC50 was 2.31 µM [falling, single point]. With `O=C1NC(c2cc(Cl)cc([N+](=O)[O-])c2O)Nc2ccccc21` (stereo not drawn), the cell number change worked out at 8.59%. In addition, under setting [1], the AC50 is 0.116 µM [falling, full curve]. Moreover, the AC50 under setting [2] was 0.092 µM [falling, full curve]. `CCOCCCNC(=O)c1ccc(NC(=O)C2=CSCCO2)cc1`: the cell number change was -19.6%. The same measure, in the same setting: in the case of `O=C(c1ccc(Cl)c(S(=O)(=O)N2CCOCC2)c1)N(c1ccccn1)C1CCCCC1` it was -1.8%. Regarding `COC(=O)C1=C(C)N=c2s/c(=C/c3cccs3)c(=O)n2C1c1ccc(F)cc1` (stereo not drawn), the cell number change was -19.9%. Further, the AC50 under setting [2] was 0.58 µM [falling, full curve]. With `COc1ccc(S(=O)(=O)Nc2ccc(S(=O)(=O)N3CCCCC3)cc2)cc1C`, the cell number change was -19.7%. Under setting [2], the AC50 is 2.59 µM [rising, partial curve]. As for `O=C(NCc1ccccc1)c1cc2ccccc2o1`, the cell number change came to 40.3%. Under setting [1], the AC50 was 1.46 µM [rising, full curve, poor fit]. Also, under setting [2], the AC50 was 29.1 µM [rising, single point]. For `O=C(NCCCc1ccccc1)C1CCC(=O)N(CCc2ccc(Cl)cc2)C1` (stereo not drawn), the cell number change was -12.9%. Further, the AC50 under setting [1] is 2.31 µM [rising, partial curve]. In addition, the AC50 under setting [2] is 16.4 µM [falling, single point]. Take `c1ccc2c(c1)ncn2Cc1nnc2sc(-c3ccc4c(c3)OCO4)nn12`: the cell number change is -21.8%.

As for `CCc1ccc(/C([O-])=C(/C(=S)NCCN2CCOCC2)[n+]2ccccc2)cc1`, the cell number change was 22.4%.

For `Cc1ccnc(NC(=O)CNC(=O)c2cccs2)c1`, the cell number change was -14.1%. On to `O=S(=O)(c1ccc(F)cc1)n1ccc(-c2cnc(-c3ccccc3)s2)n1`, for which the cell number change stood at 24.7%. Moreover, the AC50 under setting [2] was 1.84 µM [rising, partial curve]. Consider `CCCN(Cc1nc2cc(Cl)ccc2c(=O)[nH]1)C(=O)c1ccc(S(=O)(=O)N2CCCC2)cc1`, for which the cell number change was -33.7%. Under setting [1], the AC50 is 16.4 µM [falling, single point].

Consider `Cc1ccc(NC(=O)COC(=O)Cc2ccsc2)c(C)c1`, for which the half-maximal activity concentration (AC50) is, setting by setting: under setting [1], 6.51 µM [rising, single point]; under setting [2], 9.2 µM [rising, partial curve]. As for `N#Cc1c(C(F)(F)F)cc(-c2ccc(Cl)c(Cl)c2)nc1SCCN1CCOCC1`, the cell number change stood at 11.4%. In addition, the AC50 under setting [2] is 25.9 µM [rising, single point]. For `Cc1ccc(S(=O)(=O)N2CCN=C2SCc2ccccc2)cc1`, the cell number change is -10.6%. Besides, the AC50 under setting [2] was 29.1 µM [falling, single point]. For `CCOC(=O)Cc1csc(SCC(=O)NC2CCS(=O)(=O)C2)n1` (stereo not drawn), the cell number change is -0.376%. Further, the AC50 under setting [1] is 6.51 µM [falling, partial curve, poor fit]. Moreover, the half-maximal activity concentration (AC50) under setting [2] was 6.51 µM [falling, partial curve, poor fit].

Take `O=C(COc1ccccc1)NNc1c2ccccc2nc2ccccc12`: the cell number change was -77.2%. Besides, the AC50 under setting [1] was 20.6 µM [falling, partial curve].

Turning to `O=c1[nH]c(CN2CCC(c3nc4ccccc4s3)CC2)nc2sc3c(c12)CCC3`, the cell number change is 7.64%. Take `COc1ccc(C2CC(C(F)(F)F)n3nc(C(=O)NCCN4CCOCC4)cc3N2)cc1` (stereo not drawn): the cell number change was -4.4%. In the case of `Cn1c(=O)c2c(nc(NCCO)n2CCCc2ccccc2)n(C)c1=O`, the cell number change was -48.6%. Also, the AC50 under setting [1] is 29.1 µM [falling, single point]. Also, under setting [2], the AC50 is 16.4 µM [falling, single point]. `CCOn1c(=O)c(-c2ccc(OC)cc2)[n+]([O-])c2ccccc21`: the cell number change came out at 84.5%. For the same compound, under setting [1], the half-maximal activity concentration (AC50) was 11.6 µM [rising, partial curve]. Under setting [2], the AC50 was 5.17 µM [rising, single point]. As for `NC1=NC(=Nc2ccc(Br)cc2)c2ccccc21`, the cell number change was determined as 26.7%. Besides, the AC50 under setting [2] is 11.6 µM [rising, partial curve].

For the compound `Cc1nn(CCC(=O)NCc2ccc(N(C)C)cc2)c(=O)c2nn(-c3ccccc3)c(C)c12`, the cell number change is -4.56%. Further, the AC50 under setting [2] is 20.6 µM [rising, single point].

With `Cc1ccc(S(=O)(=O)NNC(=S)Nc2cccc(C)c2C)cc1`, the cell number change is -1.75%.

Take `O=S(=O)(/N=C(/Nc1nc2ccccc2s1)c1ccccc1)c1ccc(F)cc1`: the cell number change was 6.02%. Regarding `Cn1c(SCC(=O)O)nc2sc3c(c2c1=O)CCC3`, the cell number change worked out at 26%. For the same compound, the AC50 under setting [2] was 0.58 µM [rising, single point]. As to `COc1ccc(N=Nc2nc3cc(Br)c(Br)cc3n2C)c(OC)c1`, the cell number change was -10.8%. As for `CCn1c2ccccc2c2nnc(SCC(N)=O)nc21`, the cell number change was found to be 82.4%. Besides, the AC50 under setting [1] is 5.8 µM [rising, partial curve]. For the same compound, the AC50 under setting [2] was 2.31 µM [rising, partial curve].

For `O=P(O)(O)c1ccccc1OCCCCCOc1ccccc1P(=O)(O)O`, the cell number change is 23.3%. For the same compound, the AC50 under setting [2] is 6.51 µM [rising, full curve, poor fit]. `CN(c1ccc(OCC(=O)N2CCCC2)cc1)S(=O)(=O)c1ccc(Cl)cc1`: the cell number change was 36.4%. Besides, the AC50 under setting [1] was 11.6 µM [rising, partial curve]. With `O=[N+]([O-])c1ccccc1-c1ccc(CN2CCN(c3ccccc3)CC2)o1`, the cell number change was 6.77%. In addition, the AC50 under setting [1] is 0.0517 µM [rising, full curve, poor fit].

On to `O=C(Cn1ncc(Cl)c(Cl)c1=O)NCC1CCCCC1`, for which the cell number change is -16.2%. Besides, under setting [2], the AC50 is 29.1 µM [falling, single point]. `CC(C)[C@H](NC(=O)CCn1nnc2ccccc2c1=O)C(=O)O`: the cell number change was -14.6%. Besides, the AC50 under setting [2] was 2.06 µM [rising, partial curve].

Turning to `O=S(=O)(c1ccc(Cl)cc1)N1CCCC1c1nc2ccccc2s1` (stereo not drawn), the cell number change was 11.2%.

Take `Cc1occc1C(=O)Nc1ccccc1C(=O)O`: the cell number change turned out to be 7.75%. As for `Cc1cc(C)cc(NC(=O)C2CCN(c3nccs3)CC2)c1`, the cell number change was -17%. Also, the AC50 under setting [2] is 0.731 µM [rising, full curve, poor fit]. For `CC(C)C[C@H](NC(=O)c1nc[nH]c1C(=O)NCC(=O)OCc1ccccc1)C(=O)OC(C)(C)C`, the cell number change was found to be 21.6%.

`CC(Cl)C(=O)NC(=O)NC12CC3CC(CC(C3)C1)C2` (stereo not drawn): the cell number change is -31.1%. Besides, the AC50 under setting [1] is 14.6 µM [falling, single point]. Further, the AC50 under setting [2] was 13 µM [falling, single point]. Turning to `CCN1CCc2c(sc3c2c(NCc2ccco2)nc2nnnn23)C1`, the cell number change was -5.29%. In addition, the AC50 under setting [1] was 0.731 µM [falling, single point]. Regarding `O=C(Nc1ccccc1C(=O)O)c1cncc(Br)c1`, the cell number change came out at 16.6%. In addition, under setting [2], the AC50 was 29.1 µM [falling, single point].

Regarding `N#C/C(=C/c1ccc(F)cc1)c1nnc(NC(=O)c2ccccc2)s1`, the cell number change was 20.4%. For the same compound, the AC50 under setting [2] was 5.17 µM [rising, partial curve, poor fit]. Regarding `O=C(CN1CCN(Cc2ccc(F)cc2Cl)C1=O)NCCCN1CCOCC1`, the cell number change is -9.79%. Also, the AC50 under setting [2] was 0.291 µM [falling, partial curve, poor fit]. Turning to `CC(Sc1ccc(Cl)cc1)C(=O)NCc1ccc2c(c1)OCO2` (stereo not drawn), the cell number change is 10.7%. The AC50 under setting [2] is 7.31 µM [rising, partial curve]. Regarding `CC1(CCC(=O)N2CCCC(N3CCN(c4cccc(C(F)(F)F)c4)CC3)C2)CC1` (stereo not drawn), the cell number change was -31.7%. Besides, the AC50 under setting [1] is 9.2 µM [falling, partial curve, poor fit]. For `CC(C)(C)c1ccc(C2/C(=C(\O)c3ccc4c(c3)OCCO4)C(=O)C(=O)N2CCCN2CCOCC2)cc1` (stereo not drawn), the cell number change is -8.26%. Further, the AC50 under setting [2] was 0.58 µM [falling, single point].

Take `O=C(Nc1ccc(Cl)c(Cl)c1)C1CCN(C(=O)c2ccco2)CC1`: the cell number change was -32%. Under setting [1], the AC50 was 1.16 µM [falling, full curve, poor fit]. The AC50 under setting [2] is 29.1 µM [falling, single point].

With `CCC1Nc2ncnc(N3CCOCC3)c2N(Cc2ccccc2)C1=O` (stereo not drawn), the cell number change was 26.4%. In addition, the AC50 under setting [1] was 0.517 µM [falling, full curve]. Further, the AC50 under setting [2] is 0.82 µM [falling, full curve]. On to `Cc1cc(C(=O)Nn2cnnc2)ccc1[N+](=O)[O-]`, for which the cell number change was -3.7%. In addition, the AC50 under setting [2] is 0.731 µM [falling, single point]. For the compound `COc1cc2c(cc1OC)C1=C(C#N)CC/C(=N\S(=O)(=O)c3ccccc3)N1CC2`, the cell number change is -32.8%. Besides, under setting [1], the AC50 is 9.2 µM [falling, partial curve, poor fit]. Further, under setting [2], the AC50 is 20.6 µM [falling, single point]. With `O=C(Nc1ccc(N2CCCC2)cc1)c1cccc(F)c1`, the AC50 under setting [1] was 6.51 µM [rising, single point].

As for `CC(C)CN(CC(C)C)C(=O)C12CCC(C)(C(=O)C1)C2(C)C` (stereo not drawn), the cell number change is -63.8%. For the same compound, the AC50 under setting [1] was 29.1 µM [falling, single point].

With `Cc1ccc(SCCC(=O)OC(C(=O)NC(N)=O)C(C)C)cc1` (stereo not drawn), the AC50 reads like this: under setting [1], 0.00517 µM [falling, full curve, poor fit]; under setting [2], 0.00461 µM [falling, full curve, poor fit].

Take `Cc1csc(NC(=O)CSc2nc3ccccc3c(=O)[nH]2)n1`: the cell number change is -1.12%.

Consider `Fc1ccc(COc2ccccc2CNCc2ccncc2)cc1`, for which the cell number change is 2.22%. In addition, the AC50 under setting [2] was 32.6 µM [rising, single point]. `O=C(O)Cn1nc(C(F)(F)F)c2c1CCC2`: the cell number change is -4.59%.
